These are yes or no findings as the source states them, for the method shown. Binding seen in cells or lysates may run through a third protein. Tags and fused reporters may be left off the sequences shown.
Biological target: T1, GST-β4 (1436-1666)-T1663R (human) (UniProt P16144)
T1 sequence: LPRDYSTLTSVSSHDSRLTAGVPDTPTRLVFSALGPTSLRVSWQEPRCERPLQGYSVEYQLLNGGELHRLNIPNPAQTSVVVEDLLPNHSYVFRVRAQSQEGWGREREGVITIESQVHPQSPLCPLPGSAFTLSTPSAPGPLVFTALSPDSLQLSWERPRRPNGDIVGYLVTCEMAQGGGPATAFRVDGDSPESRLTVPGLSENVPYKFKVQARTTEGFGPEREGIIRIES
Experiment: pull-down

B1: FLAG-BP230 (19-162) S46D (domain or fragment, UniProt Q03001-8 19-162)
chain: TSTRTSLDSNENLLLVHCGPTLINSCIDFGSESFDGHRLEMLQQIANRVQRDSVICEDKLILAGNALQSDSKRLESGVQFQNEAEIAGYILECENLLRQHVIDVQILIDGKYYQADQLVQRVAKLRDEIMALRNECSSVYSKGR
With B1 the binding was “no binding”.

Reference: paper doi:10.1101/402123 (bioRxiv, 2018)
